Literature values in patent US10098880B2 (CELLWORKS GROUP INC., priority 2014, dated 2018).
At least one read-out could not be matched to a standard name with certainty.

Conditions: in vivo; cited from earlier work

**Q.** Which “effect of food on AUC” value does the source give for `CC(C)c1nc(N(C)S(C)(=O)=O)nc(-c2ccc(F)cc2)c1/C=C/[C@@H](O)C[C@@H](O)CC(=O)O` [Rosuvastatin, (E,3R,5S)-7-[4-(4-fluorophenyl)-2-[methyl(methylsulfonyl)amino]-6-propan-2-ylpyrimidin-5-yl]-3,5-dihydroxyhept-6-enoic acid] here?
**A.** Its value is “no effect”.
